# Laboratory results from PubChem BioAssay AID504834 (National Center for Advancing Translational Sciences (NCATS), 2011).
# The campaign covered roughly 320,000 compounds. About 22,000 (6.9%) were called active. The shares of active, inactive and inconclusive entries below differ from those in the screen. The call rests on the fitted dose curve; in most records, active means well fitted inhibition curve with a large enough effect; inconclusive means small, poorly fitted or top-dose-only effect, or another doubt; inactive means no such curve, though single readings can be large or run the other way. Where the call is inconclusive, the potency comes from a doubtful curve fit.
# Experiment: Primary qHTS for delayed death inhibitors of the malarial parasite plastid, 96 hour incubation
# Conditions: P. falciparum luciferase reporter growth; series mostly up to 28.7 µM; activity change, negative = inhibition: at the top concentration
# In short: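 Erythrocytes infected with luciferase-expressing P. falciparum were dispensed at 2% hematocrit and 0.05% parasitemia (final), then incubated with compounds 96 hours at 37 C in 5% CO2. Luminescence after detection reagent addition reported growth.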
# On the % scale 0 is the no-effect control and ±100 the full control effect; potency means the concentration at half of the fitted maximal effect.
SMILES,Potency,"activity change, negative = inhibition"
Cc1cccc(N2CCN(C(=O)c3cccc(N4CCCC4=O)c3)C(C)C2)c1 (centres undefined),"inconclusive: 3.7 µM [inhibitor, full curve]",–
CCN(CC)c1ccc(/C=N/NC(=O)c2c(Cl)c(C)nn2C)cc1,–,inactive: 23.8%
CC(C)n1c(SCC(=O)Nc2ccc(F)cc2)nnc1C1CC1,–,inactive: 94%
CCCCC(=O)NNC(=S)NC(=O)c1ccc([N+](=O)[O-])cc1,"inconclusive: 18.5 µM [inhibitor, partial curve, poor fit]",–
Cc1ccc(/C=C/C(=O)Nc2cc(S(=O)(=O)N3CCOCC3)ccc2N2CCOCC2)cc1,"inconclusive: 11.7 µM [inhibitor, single point]",–
N#Cc1cccc(C(=O)OCC(=O)NC(=O)NC2CCCCC2)c1,–,inactive: -15.5%
Cc1ccccc1S(=O)(=O)Cc1ccc(C(=O)NC2CCC(C)CC2)o1 (centres undefined),–,inactive: -22.8%
O=C(Cc1ccc(Cl)cc1Cl)Nc1cccc(S(=O)(=O)Nc2ccccc2F)c1,–,inactive: 34.1%
C/C(=N\NC(=O)Cc1ccc(Cl)cc1)c1cccc(NC(=O)c2cccnc2)c1,"inconclusive: 18.5 µM [inhibitor, single point]",–
COc1ccc(-c2cc(C(=O)O)c3sc(N4CCCCC4)nc3n2)cc1OC,"inconclusive: 11.7 µM [inhibitor, partial curve, poor fit]",–
CCOC(=O)c1ccccc1NS(=O)(=O)c1ccccc1F,"inconclusive: 10.4 µM [inhibitor, single point]",–
NC(=O)CSc1nnc(Cc2cccs2)n1C1CCCCC1,"inconclusive: 10.4 µM [inhibitor, single point]",–
COc1ccccc1N1CCN(C(=O)c2ccc(NC(C)=O)cc2)CC1,"inconclusive: 10.4 µM [inhibitor, single point]",–
Cc1cc(C)c2c(C)c(C(=O)NCc3ccncc3)oc2c1,–,inactive: 33.3%
Cc1cc(NC(=O)CSc2nc3ccc(Cl)cc3[nH]2)no1,–,inactive: -4.24%
Cc1ccc(Cn2c(=O)c3c(nc4n3CCN4Cc3ccco3)n(C)c2=O)cc1,–,inactive: 32.8%
O=C(COC(=O)Cc1c(F)cccc1Cl)Nc1nnc(-c2ccccc2)o1,–,inactive: 5.25%
COc1cccc(NC(=O)CSCc2cc(=O)n3nc(C4CC4)sc3n2)c1,"inconclusive: 18.5 µM [inhibitor, single point]",–
N#Cc1ccccc1NC(=O)Nc1cccc(Cl)c1,–,inactive: 32.6%
O=C(NC1(C(F)(F)F)N=C2SCCN2C1=O)c1cccnc1 (centres undefined),"inconclusive: 1.04 µM [inhibitor, partial curve, poor fit]",–
N#Cc1c(F)cccc1NCc1cccnc1,–,inactive: -14%
COCCNC(=O)C(c1ccc(C)o1)N(CC1CCCO1)C(=O)Cn1nnc2ccccc21 (centres undefined),"inconclusive: 0.828 µM [inhibitor, full curve, poor fit]",–

SMILES,Potency,"activity change, negative = inhibition"
O=C(NCc1ccco1)C1CC(=O)N(c2ccc(O)cc2)C1 (centres undefined),"inconclusive: 6.57 µM [inhibitor, partial curve, poor fit]",–
O=C(Nc1cccc(S(=O)(=O)N2CCCC2)c1)c1cc(-c2ccccn2)nc2ccccc12,"inconclusive: 0.117 µM [inhibitor, full curve, poor fit]",–
O=C(Nc1cc(S(=O)(=O)N2CCOCC2)ccc1N1CCOCC1)c1ccccc1F,"inconclusive: 4.15 µM [inhibitor, single point]",–
O=C1C2C3C=CC(C3)C2C(=O)N1c1ccc(N2CCN(c3ccccn3)CC2)c([N+](=O)[O-])c1 (centres undefined),"inconclusive: 14.7 µM [inhibitor, partial curve]",–
COc1cccc(NC(=O)N2C3CCCC2CC(NC(=O)C2CC2)C3)c1 (centres undefined),active: 1.47 µM,–
O=c1cc(CS(=O)(=O)c2ccccc2)nc(-c2ccncc2)[nH]1,"inconclusive: 0.465 µM [inhibitor, partial curve, poor fit]",–
O=C(O)/C=C/c1ccc(S(=O)(=O)NCc2ccco2)cc1,"inconclusive: 2.62 µM [inhibitor, full curve]",–
CCOc1ccc(C(=O)Nc2nc(C)c(C(=O)OC)s2)cc1,–,inactive: 125%
Cc1noc(C)c1COc1ccccc1C(=O)N1CCN(c2cccc(Cl)c2)CC1,"inconclusive: 13.1 µM [inhibitor, single point]",–
CN(c1ccccc1)S(=O)(=O)c1cccc(NC(=O)c2cc3ccccc3oc2=O)c1,"inconclusive: 9.28 µM [inhibitor, partial curve, poor fit]",–
COc1ccc(S(=O)(=O)Nc2cc3c4c(oc3c3ccccc23)CC(C)(C)CC4=O)cc1,"inconclusive: 18.5 µM [inhibitor, single point]",–
CC(C)N1CCN(Cc2ccc(-c3ccccc3)cc2)CC1CCO (centres undefined),"inconclusive: 14.7 µM [inhibitor, single point]",–
CC(C)CN(CCCNC(=O)CC1Oc2ccccc2NC1=O)CC(C)C (centres undefined),"inconclusive: 18.5 µM [inhibitor, single point]",–
CCC1Oc2ccc(C)cc2N(CC(=O)N(Cc2cccnc2)Cc2cccc(F)c2)C1=O (centres undefined),–,inactive: 97.8%
CC(=O)NCCNc1nc2c(-c3ccccc3)nnn2c2ccccc12,"inconclusive: 20.8 µM [inhibitor, partial curve, poor fit]",–
O=C(CN1CCN(C(=O)c2cccc(S(=O)(=O)N3CCCC3)c2)CC1)Nc1ccccc1Cl,"inconclusive: 14.7 µM [inhibitor, single point]",–
Cc1ccccc1-n1nc(C(=O)c2cccs2)cc(-c2nc3ccccc3[nH]2)c1=N,"inconclusive: 8.28 µM [inhibitor, partial curve, poor fit]",–
CC(C)=C(NC(=O)c1ccccc1)C(=O)NCc1ccccc1,"inconclusive: 18.5 µM [inhibitor, single point]",–
COCCOC(=O)C1=C(C)NC2(O)c3ccccc3C(=O)C12O (centres undefined),"inconclusive: 13.1 µM [inhibitor, single point]",–
O=C(N/N=C/c1ccc2c(c1)OCO2)c1cc(-c2ccccc2Cl)nc2ccccc12,active: 10.4 µM,–
Cc1ccc(-c2cc(C(=O)NCc3ccco3)no2)cc1,–,inactive: -13.4%
Cc1nc2ccccc2c(C)c1CC(=O)OC(C)C(=O)NC1(C#N)CCCCC1 (centres undefined),"inconclusive: 18.5 µM [inhibitor, single point]",–
